Data as given in PubChem BioAssay AID1224828 (NIAID, 2016).

Screen: 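Find genes required for NF-kappaB p65 moving into the nucleus after LPS in mouse macrophages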 (primary screen)
Cells: mouse RAW264.7 G9 macrophage reporter cells (GFP-p65, Tnf promoter-mCherry)
Knock-down reagent: siRNA pool against mouse genes, 100 nM
Time to read-out: 2 days siRNA transfection, then 40 min LPS before fixation
Challenge: LPS (Salmonella minnesota R595) at 10 ng/ml
Read-out: 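Imaged p65 nuclear translocation ratio, normalised to the plate median, converted to robust z-scores and averaged across two replicates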
Direction: p65 translocation robust z-score: higher = more nuclear NF-kappaB p65 after LPS than the plate median; nuclear/cytoplasmic p65 ratio: higher = more nuclear NF-kappaB p65
Rule for the call: 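Called active when z exceeds 3.3 or falls under -1.56 (median of Tlr4 controls), giving activity score of at least 50; no calls for control wells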
Meaning of the calls: active = hit (p65 shift raised or lowered); inactive = no clear change
Here is an unselected part of about 17,000 reagents. 762 of all reagents (4.5%) were called active. 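Active calls include both raised and lowered p65 entry, mostly lowered; wells with fewer than 50 cells lack a z-score.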 Raw values are not corrected between plates. Reagents against one gene are numbered here. Reagent sequences are not shown.

The opening 5 records, ahead of the listing:
gene | reagent | p65 translocation robust z-score | nuclear/cytoplasmic p65 ratio, rep 1 | nuclear/cytoplasmic p65 ratio, rep 2 | low cell count flag | call
Eid1 | 1 | 0.62 | 1.56 | 2 | enough cells to score | inactive
Daxx | 1 | -0.2 | 1.52 | 1.27 | enough cells to score | inactive
Tchp | 1 | -0.23 | 1.32 | 1.53 | enough cells to score | inactive
Fxyd6 | 1 | -0.12 | 1.52 | 1.49 | enough cells to score | inactive
Or13f5 | 1 | -0.78 | 1.46 | 1.35 | enough cells to score | inactive

Results, from the first entry:
gene | reagent | p65 translocation robust z-score | nuclear/cytoplasmic p65 ratio, rep 1 | nuclear/cytoplasmic p65 ratio, rep 2 | low cell count flag | call
Eid1 | 1 | 0.62 | 1.56 | 2 | enough cells to score | inactive
Daxx | 1 | -0.2 | 1.52 | 1.27 | enough cells to score | inactive
Tchp | 1 | -0.23 | 1.32 | 1.53 | enough cells to score | inactive
Fxyd6 | 1 | -0.12 | 1.52 | 1.49 | enough cells to score | inactive
Or13f5 | 1 | -0.78 | 1.46 | 1.35 | enough cells to score | inactive
Hoxb13 | 1 | 0.66 | 1.43 | 1.54 | enough cells to score | inactive
Pramel12 | 1 | – | 1.37 | 1.17 | fewer than 50 cells per well; well left out of scoring | inactive
Smr3a | 1 | – | 0 | 1.4 | fewer than 50 cells per well; well left out of scoring | inactive
Smr3a | 2 | -0.31 | 1.41 | 1.19 | enough cells to score | inactive
Defb12 | 1 | 1.12 | 1.71 | 1.73 | enough cells to score | inactive
Nanos2 | 1 | -1.81 | 1.53 | 1.28 | enough cells to score | active
Elapor2 | 1 | 2.18 | 1.69 | 1.89 | enough cells to score | inactive
Cnpy3 | 1 | -2.27 | 1.27 | 1.12 | enough cells to score | active
Grb10 | 1 | -0.24 | 1.31 | 1.43 | enough cells to score | inactive
Mettl21e | 1 | – | 1.12 | 1.24 | fewer than 50 cells per well; well left out of scoring | inactive
Nostrin | 1 | -0.9 | 1.65 | 1.35 | enough cells to score | inactive
C1qtnf3 | 1 | -1.13 | 1.28 | 1.58 | enough cells to score | inactive
Slc22a21 | 1 | 0.55 | 1.44 | 1.35 | enough cells to score | inactive
Kbtbd4 | 1 | 0.36 | 1.52 | 1.55 | enough cells to score | inactive
Praf2 | 1 | – | 1.48 | 1.31 | fewer than 50 cells per well; well left out of scoring | inactive
Rbm8a | 1 | 0.28 | 1.45 | 1.25 | enough cells to score | inactive
Ctsw | 1 | 0.21 | 1.37 | 1.39 | enough cells to score | inactive
Shoc2 | 1 | – | 1.13 | 1.01 | fewer than 50 cells per well; well left out of scoring | inactive
P2rx5 | 1 | 1.65 | 1.68 | 1.62 | enough cells to score | inactive
Nectin3 | 1 | 0.53 | 1.67 | 1.52 | enough cells to score | inactive
Slco2b1 | 1 | – | 1.17 | 1.04 | fewer than 50 cells per well; well left out of scoring | inactive
Prim2 | 1 | 0.35 | 1.55 | 1.45 | enough cells to score | inactive
Cyb5a | 1 | -0.79 | 1.38 | 1.27 | enough cells to score | inactive
Or4f14d | 1 | 0.03 | 1.52 | 1.51 | enough cells to score | inactive
Defa-rs2 | 1 | 0.08 | 1.45 | 1.39 | enough cells to score | inactive
C9 | 1 | -1.36 | 1.42 | 1.41 | enough cells to score | inactive
Or4k15c | 1 | – | 1.74 | 1.23 | fewer than 50 cells per well; well left out of scoring | inactive
Fmo9 | 1 | -0.29 | 1.26 | 1.22 | enough cells to score | inactive
Defb38 | 1 | 0.54 | 1.63 | 1.65 | enough cells to score | inactive
Fam161a | 1 | -2.14 | 1.01 | 1.02 | enough cells to score | active
Susd2 | 1 | – | 1.33 | 1.24 | fewer than 50 cells per well; well left out of scoring | inactive
Gspt1 | 1 | -0.14 | 1.45 | 1.32 | enough cells to score | inactive
Rnf4 | 1 | 0.38 | 1.5 | 1.64 | enough cells to score | inactive
Itih5 | 1 | 0.3 | 1.65 | 1.42 | enough cells to score | inactive
Gapt | 1 | -1.41 | 1.26 | 1.32 | enough cells to score | inactive
